# Assay results taken from article PMC11520303.
# No constants are given. Whether binding was seen depends on the method and setting. Binding seen in cells or lysates may run through a third protein. A result given as binding can be weak or reduced; the word gives no strength.
# Target: C1_01140Cp-GFPy (Candida albicans SC5314)
# Experiment: co-IP; Dual-tagged C. albicans strains grown 14 h in YPD; cells cross-linked with 1 mM dithiobis(succinimidyl propionate) in PBS for 30 min before lysis; 2 mg lysate protein incubated with anti-GFP (TrueMAB tGFP) monoclonal antibody magnetic beads for 2 h at 4°C; washed in 20 mM Tris-HCl, 150 mM NaCl, 0.5 mM EDTA, 10 mM MgCl2; prey detected by anti-tdTomato western blot; untagged SC5314 as negative control
binder,measurement,value
"CaGsy1p-tdTomato (enzyme, UniProt Q5A850 1-661) MARDIDNHLLFEVATEVAHKVGGIYSVLKSKAPVTVAEYRERYTLLGPLHYDSAQIEVEELPVTDPHIKQTLDSMSSKGIRWLYGRWLIEGAPRVLLFDIWSAGHYLNEWKADLWNVAGIPTPDHDSETNDAILLGYLVAWFLGELVYNDRDRAVICQCHEWLAGIALPLCRKRRIDVTTIFTTHATLLGRYLCAGSTDFYNNLDKFDVDAEAGKRGIYHRYCIERSATHSADVFTTVSDITAYEAEHLLKRKPDGVLPNGLNVVKFQAVHEFQNLHAIKKAKINEFVKGHFYGNYDFDLDNTLYFFIAGRYEFRNKGCDFFIESLARLNHKLKEAGSKTTVVAFIIMPGKTQSYTVETLKGQAVVKQLESTIGEVQKKVGERLFEYCARYPNTDHHGNDEVPTIDELIKPADRVLLKRRIFALKRDGLPPIVTHNMVDDSTDPVLNHIRRVQLFNKPEDRVKIIFHPEFLNANNPILSLDYDEFVRGCHLGVFPSYYEPWGYTPAECTVMGIPSITTNLSGFGCYMNDLVENPTDYGIYIVDRRMKSVDESINQLTDYMFDFCAKSRRQRINQRNRTERLSVLLDWRSVHSEYSKARLLALKRAYPDYVGEKVVESKMKITRPMSVPGSPRSLLLTPGDLGSLQDANQDISYFELGEEET",binding,binds
